Measurements: the supplement of paper PMC10849652
This is one part of the list. Residues, ends and D or L forms follow the SMILES beside them. *: point of attachment. Cbz = O=C(OCc1ccccc1)*

The chains behind the UniProt entries cited, without tags or fusion partners. Where a name states a change or a piece, a line headed by the entry shows the natural chain unless it says otherwise.
UniProt Q9HB71, whole entry, looked up: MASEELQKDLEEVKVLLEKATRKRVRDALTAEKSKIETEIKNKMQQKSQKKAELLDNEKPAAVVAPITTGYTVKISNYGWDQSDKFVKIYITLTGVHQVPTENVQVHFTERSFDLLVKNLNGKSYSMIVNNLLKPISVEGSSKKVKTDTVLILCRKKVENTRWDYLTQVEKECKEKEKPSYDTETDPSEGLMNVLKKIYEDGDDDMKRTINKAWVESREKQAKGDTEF
UniProt P40121: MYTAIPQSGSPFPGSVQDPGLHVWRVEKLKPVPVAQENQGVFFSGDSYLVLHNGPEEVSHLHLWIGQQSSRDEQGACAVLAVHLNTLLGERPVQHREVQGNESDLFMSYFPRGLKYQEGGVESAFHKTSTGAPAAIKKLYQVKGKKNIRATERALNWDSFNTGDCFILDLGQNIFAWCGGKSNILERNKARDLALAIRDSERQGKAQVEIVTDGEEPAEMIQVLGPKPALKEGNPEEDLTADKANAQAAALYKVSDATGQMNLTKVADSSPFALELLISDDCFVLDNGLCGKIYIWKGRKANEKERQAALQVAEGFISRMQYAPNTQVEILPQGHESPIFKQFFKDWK
UniProt Q9NS00: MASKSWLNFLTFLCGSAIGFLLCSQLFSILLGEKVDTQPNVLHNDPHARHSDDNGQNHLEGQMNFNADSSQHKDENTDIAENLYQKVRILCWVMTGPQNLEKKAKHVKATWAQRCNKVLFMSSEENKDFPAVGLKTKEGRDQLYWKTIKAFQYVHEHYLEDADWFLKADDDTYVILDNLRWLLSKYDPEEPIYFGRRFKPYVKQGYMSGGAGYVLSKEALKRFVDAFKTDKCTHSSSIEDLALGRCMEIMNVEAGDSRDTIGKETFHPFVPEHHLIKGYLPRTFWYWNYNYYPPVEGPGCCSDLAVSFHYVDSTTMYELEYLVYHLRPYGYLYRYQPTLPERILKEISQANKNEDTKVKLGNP
UniProt Q6UWU4: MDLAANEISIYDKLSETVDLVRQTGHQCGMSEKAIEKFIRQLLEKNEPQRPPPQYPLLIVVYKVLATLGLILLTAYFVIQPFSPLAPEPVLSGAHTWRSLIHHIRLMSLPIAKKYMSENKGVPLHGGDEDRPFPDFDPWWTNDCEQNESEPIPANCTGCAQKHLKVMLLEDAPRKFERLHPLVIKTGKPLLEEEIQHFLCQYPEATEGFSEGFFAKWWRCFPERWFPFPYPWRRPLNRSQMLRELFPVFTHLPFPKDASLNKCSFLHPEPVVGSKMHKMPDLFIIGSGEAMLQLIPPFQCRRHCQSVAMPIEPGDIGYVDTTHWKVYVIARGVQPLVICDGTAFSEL
UniProt P47756, whole entry, looked up: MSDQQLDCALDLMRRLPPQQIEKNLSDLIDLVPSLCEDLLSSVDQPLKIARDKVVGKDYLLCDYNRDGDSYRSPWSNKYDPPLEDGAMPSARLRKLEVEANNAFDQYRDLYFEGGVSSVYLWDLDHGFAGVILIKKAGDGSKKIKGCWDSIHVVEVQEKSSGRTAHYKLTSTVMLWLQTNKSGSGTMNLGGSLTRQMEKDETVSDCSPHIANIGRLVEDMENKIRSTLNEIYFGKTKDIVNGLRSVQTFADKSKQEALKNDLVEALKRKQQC
UniProt A6NDU8: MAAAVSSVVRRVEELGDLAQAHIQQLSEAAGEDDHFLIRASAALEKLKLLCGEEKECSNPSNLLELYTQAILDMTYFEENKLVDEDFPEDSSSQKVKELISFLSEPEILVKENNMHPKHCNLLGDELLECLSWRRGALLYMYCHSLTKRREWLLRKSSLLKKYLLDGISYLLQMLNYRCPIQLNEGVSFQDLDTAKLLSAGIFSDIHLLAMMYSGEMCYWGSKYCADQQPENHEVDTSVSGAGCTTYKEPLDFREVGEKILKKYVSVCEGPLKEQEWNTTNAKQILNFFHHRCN
UniProt Q01518, whole entry, looked up: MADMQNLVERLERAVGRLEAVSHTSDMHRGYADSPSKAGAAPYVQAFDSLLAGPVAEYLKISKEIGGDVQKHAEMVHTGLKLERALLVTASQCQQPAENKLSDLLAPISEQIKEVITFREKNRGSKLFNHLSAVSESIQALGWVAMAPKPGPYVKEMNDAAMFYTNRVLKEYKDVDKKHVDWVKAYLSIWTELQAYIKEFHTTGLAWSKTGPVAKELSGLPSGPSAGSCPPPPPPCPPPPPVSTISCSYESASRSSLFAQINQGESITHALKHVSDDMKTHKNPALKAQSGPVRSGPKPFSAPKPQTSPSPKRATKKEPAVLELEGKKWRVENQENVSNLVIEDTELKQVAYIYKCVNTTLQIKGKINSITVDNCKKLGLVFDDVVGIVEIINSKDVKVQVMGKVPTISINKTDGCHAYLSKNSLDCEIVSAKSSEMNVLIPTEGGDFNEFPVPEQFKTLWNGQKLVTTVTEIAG
UniProt Q8WUR7: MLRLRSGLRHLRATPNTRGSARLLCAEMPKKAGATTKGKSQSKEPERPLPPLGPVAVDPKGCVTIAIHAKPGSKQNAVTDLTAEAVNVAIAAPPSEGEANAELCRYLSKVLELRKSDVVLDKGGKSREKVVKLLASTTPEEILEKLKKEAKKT
UniProt Q96B23: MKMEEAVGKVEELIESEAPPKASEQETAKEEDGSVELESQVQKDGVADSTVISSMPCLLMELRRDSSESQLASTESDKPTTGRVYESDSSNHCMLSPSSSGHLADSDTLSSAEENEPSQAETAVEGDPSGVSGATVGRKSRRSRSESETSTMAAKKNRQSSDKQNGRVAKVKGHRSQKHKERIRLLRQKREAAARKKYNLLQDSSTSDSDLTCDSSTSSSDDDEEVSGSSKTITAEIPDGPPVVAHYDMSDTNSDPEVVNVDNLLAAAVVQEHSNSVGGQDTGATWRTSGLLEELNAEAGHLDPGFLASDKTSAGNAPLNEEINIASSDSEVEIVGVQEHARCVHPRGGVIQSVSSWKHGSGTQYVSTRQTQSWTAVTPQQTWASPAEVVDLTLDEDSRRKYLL
UniProt Q6P1X6: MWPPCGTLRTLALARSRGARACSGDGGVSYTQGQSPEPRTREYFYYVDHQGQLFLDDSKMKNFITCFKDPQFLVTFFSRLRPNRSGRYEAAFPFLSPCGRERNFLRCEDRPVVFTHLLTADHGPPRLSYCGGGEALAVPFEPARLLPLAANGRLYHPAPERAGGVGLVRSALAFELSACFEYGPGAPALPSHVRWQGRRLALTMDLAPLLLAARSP
UniProt Q6P1S2: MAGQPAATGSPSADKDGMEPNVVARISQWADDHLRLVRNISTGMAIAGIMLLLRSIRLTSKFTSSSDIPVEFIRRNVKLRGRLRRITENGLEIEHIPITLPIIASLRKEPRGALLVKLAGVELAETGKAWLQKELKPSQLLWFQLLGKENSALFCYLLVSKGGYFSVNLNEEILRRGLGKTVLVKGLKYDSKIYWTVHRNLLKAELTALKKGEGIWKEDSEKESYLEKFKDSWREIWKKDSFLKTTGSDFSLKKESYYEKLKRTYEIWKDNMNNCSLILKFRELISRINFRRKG
UniProt Q8WVQ1: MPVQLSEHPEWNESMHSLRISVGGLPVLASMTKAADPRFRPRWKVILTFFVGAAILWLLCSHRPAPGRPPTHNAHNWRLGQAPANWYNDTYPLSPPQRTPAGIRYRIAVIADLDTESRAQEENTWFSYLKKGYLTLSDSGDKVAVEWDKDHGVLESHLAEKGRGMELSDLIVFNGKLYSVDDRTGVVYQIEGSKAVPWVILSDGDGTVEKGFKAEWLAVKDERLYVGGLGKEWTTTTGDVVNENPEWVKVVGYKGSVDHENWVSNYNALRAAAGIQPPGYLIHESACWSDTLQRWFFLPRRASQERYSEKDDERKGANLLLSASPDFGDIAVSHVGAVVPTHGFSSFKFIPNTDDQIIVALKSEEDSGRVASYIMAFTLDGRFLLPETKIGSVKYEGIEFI
UniProt Q07021: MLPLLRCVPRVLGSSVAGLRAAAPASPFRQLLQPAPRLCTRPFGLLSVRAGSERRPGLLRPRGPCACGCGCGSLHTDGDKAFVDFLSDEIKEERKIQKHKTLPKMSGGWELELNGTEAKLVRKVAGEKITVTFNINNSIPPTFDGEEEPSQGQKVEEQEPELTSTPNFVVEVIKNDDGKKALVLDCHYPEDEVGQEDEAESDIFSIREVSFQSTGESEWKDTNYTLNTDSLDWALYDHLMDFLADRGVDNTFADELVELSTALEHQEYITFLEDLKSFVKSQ
UniProt Q9Y376: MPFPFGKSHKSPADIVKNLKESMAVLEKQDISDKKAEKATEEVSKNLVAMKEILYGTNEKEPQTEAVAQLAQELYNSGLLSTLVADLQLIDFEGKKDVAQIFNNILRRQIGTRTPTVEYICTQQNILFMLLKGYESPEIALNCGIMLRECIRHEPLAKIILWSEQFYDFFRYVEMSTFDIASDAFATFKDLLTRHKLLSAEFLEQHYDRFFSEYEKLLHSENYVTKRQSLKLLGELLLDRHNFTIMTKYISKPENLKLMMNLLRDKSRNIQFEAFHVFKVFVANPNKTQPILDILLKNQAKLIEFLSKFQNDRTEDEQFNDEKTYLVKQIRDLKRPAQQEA

Key:
Experiment in all cases: log2 fold change, soluble protein after heating vs DMSO (PISA); higher = thermal stabilisation; K562 cells, 10 uM, 30 min; active = over 0.2 and 3.5 SD of the protein, either way, in both replicates (recomputed)
IRAK-1-4 Inhibitor I = compound: C1COCCN1CCN2C3=CC=CC=C3N=C2NC(=O)C4=CC(=CC=C4)[N+](=O)[O-] [IRAK-1-4 Inhibitor I]
Summary of the method: (§1)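 For each measurement, 10 μM compound was applied for 30 min to K562 cells at 2×10^6 cells/mL. Aliquots were heated for 3 min across 48°C-58°C, pooled, and extracted in PBS with 0.5% NP-40 at 4°C; the supernatant after 21,000xg for 90 min was soluble protein. This was quantified by TMTpro 16plex LC-MS/MS with channel sums equalised, and thermal stability was reported relative to control samples from duplicates, on a log2 fold-change scale.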

ibrutinib = compound: C=CC(=O)N1CCC[C@@H](n2nc(-c3ccc(Oc4ccccc4)cc3)c3c(N)ncnc32)C1 [ibrutinib]
Summary of the method: as §1

[1] = compound: CC(=O)c1cnc2ccc(-c3cc(Cl)c(O)c(Cl)c3)nc2c1N[C@H]1CC[C@H](CN(C)C)CC1
Summary of the method: as §1

ralimetinib = compound: CC(C)(C)Cn1c(N)nc2ccc(-c3[nH]c(C(C)(C)C)nc3-c3ccc(F)cc3)nc21 [ralimetinib]
Summary of the method: as §1

[2] = compound: CC(C)(O)CC(=O)NCCn1ccc2ncnc(Nc3ccc(Oc4cccc(C(F)(F)F)c4)c(Cl)c3)c21
Summary of the method: as §1

[3] = compound: CC(C)C1=C2N=C(C=C(N2N=C1)NCC3=CC=CC=C3)NCCCCCCN
Summary of the method: as §1

[4] = compound: CC(C)C[C@@H](C=O)NC(=O)[C@H](CC(C)C)NC(=O)[C@H](CC(C)C)NC(=O)OCc1ccccc1
Summary of the method: as §1

pinometostat = compound: CC(C)N(C[C@H]1O[C@@H](n2cnc3c(N)ncnc32)[C@H](O)[C@@H]1O)[C@H]1C[C@@H](CCc2nc3cc(C(C)(C)C)ccc3[nH]2)C1 [pinometostat]
Summary of the method: as §1

[5] = compound: CC1=C(C(CC(=O)N1)C2=CC=C(C=C2)C(F)(F)F)C(=O)NC3=C(C=C4C(=C3)C=NN4)F
Summary of the method: as §1

[6] = compound: CC1=C(C2=C(C=C1)C(=O)C3=CC=CC=C3N2CCCN)C
Summary of the method: as §1

[7] = compound: CC1=C(C=C(C=C1)NC(=O)C2=CC(=CC=C2)C(C)(C)C#N)NC3=CC4=C(C=C3)N=CN(C4=O)C
Summary of the method: as §1

[8] = compound: CC1=C(C=C(C=C1)NC(=O)C2=CC(=CC=C2)N(C)C)NC(=O)C3=CC=C(C=C3)O
Summary of the method: as §1

[9] = compound: CC1=CC=C(C=C1)SC2=C3C=C(SC3=CN=C2)C(=O)N
Summary of the method: as §1

[10] = compound: CC1=NC(=CC=C1)C2=C(N=C(N2)C(C)(C)C)C3=CC4=NC=CN=C4C=C3
Summary of the method: as §1

Nexturastat A = compound: CCCCN(Cc1ccc(C(=O)NO)cc1)C(=O)Nc1ccccc1 [Nexturastat A]
Summary of the method: as §1

vemurafenib = compound: CCCS(=O)(=O)Nc1ccc(F)c(C(=O)c2c[nH]c3ncc(-c4ccc(Cl)cc4)cc23)c1F [vemurafenib]
Summary of the method: as §1

[11] = compound: CCCS(=O)(=O)Nc1ccc(F)c(C(=O)c2c[nH]c3ncc(Cl)cc23)c1F
Summary of the method: as §1

[12] = compound: CCCc1cc(C)[nH]c(=O)c1CNC(=O)c1cc(-c2ccnc(N3CCN(C)CC3)c2)cc2c1cnn2C(C)C
Summary of the method: as §1

givinostat = compound: CCN(CC)Cc1ccc2cc(COC(=O)Nc3ccc(C(=O)NO)cc3)ccc2c1 [givinostat]
Summary of the method: as §1

barasertib = compound: CCN(CCCOc1ccc2c(Nc3cc(CC(=O)Nc4cccc(F)c4)[nH]n3)ncnc2c1)CCOP(=O)(O)O [barasertib]
Summary of the method: as §1

Measured: log2 fold change

CACYBP (UniProt Q9HB71)
inactive: IRAK-1-4 Inhibitor I 0.036 | ibrutinib 0.006 | [1] -0.014 | ralimetinib -0.022 | [2] -0.004 | [3] 0.02 | [4] -0.001 | pinometostat -0.001 | [5] 0.004 | [6] 0.037 | [7] 0.018 | [8] -0.002 | [9] -0.01 | [10] 0.021 | Nexturastat A -0.041 | vemurafenib -0.006 | [11] -0.042 | [12] 0.008 | givinostat -0.001 | barasertib 0.013

CAPG (UniProt P40121)
inactive: IRAK-1-4 Inhibitor I -0.02 | ibrutinib -0.04 | [1] 0.053 | ralimetinib 0 | [2] -0.072 | [3] -0.077 | [4] -0.036 | pinometostat -0.014 | [5] -0.006 | [6] 0.016 | [7] 0.079 | [8] -0.022 | [9] 0.003 | [10] 0.038 | Nexturastat A -0.021 | vemurafenib 0.042 | [11] 0.047 | [12] -0.01 | givinostat 0.024 | barasertib 0.058

C1GALT1 (UniProt Q9NS00)
inactive: IRAK-1-4 Inhibitor I 0.04 | ibrutinib 0.042 | [1] -0.025 | ralimetinib -0.007 | [2] 0.07 | [3] 0.014 | [4] 0.029 | pinometostat 0.036 | [5] 0.159 | [6] 0.047 | [7] -0.016 | [8] 0.015 | [9] -0.014 | [10] -0.062 | Nexturastat A -0.058 | vemurafenib -0.014 | [11] -0.031 | [12] -0.095 | givinostat -0.006 | barasertib 0.054

C11orf98 (UniProt E9PRG8)
inactive: IRAK-1-4 Inhibitor I -0.147 | ibrutinib 0.067 | [1] 0.046 | ralimetinib 0.146 | [2] 0.07 | [3] 0.02 | [4] 0.113 | pinometostat 0.182 | [5] 0.019 | [6] -0.271 | [7] -0.036 | [8] 0.018 | [9] -0.103 | [10] -0.104 | Nexturastat A 0.236 | vemurafenib -0.095 | [11] -0.121 | [12] 0.078 | givinostat 0.03 | barasertib -0.062

C6orf89 isoform 2 (UniProt Q6UWU4)
inactive: IRAK-1-4 Inhibitor I 0 | ibrutinib 0.004 | [1] -0.002 | ralimetinib -0.023 | [2] -0.023 | [3] -0.069 | [4] 0.045 | pinometostat -0.033 | [5] 0.033 | [6] -0.008 | [7] -0.028 | [8] -0.005 | [9] 0.013 | [10] 0.035 | Nexturastat A -0.073 | vemurafenib 0.025 | [11] 0.008 | [12] -0.051 | givinostat -0.084 | barasertib -0.029

CAPZB (UniProt P47756)
inactive: IRAK-1-4 Inhibitor I 0.038 | ibrutinib 0.002 | [1] 0.005 | ralimetinib -0.03 | [2] -0.015 | [3] 0.037 | [4] 0.01 | pinometostat -0.009 | [5] 0.009 | [6] 0.021 | [7] 0.033 | [8] 0.037 | [9] 0.009 | [10] 0.013 | Nexturastat A -0.081 | vemurafenib -0.014 | [11] -0.01 | [12] -0.001 | givinostat -0.025 | barasertib 0.005

Quoted from the entries so far (four entries):
C1GALT1 (UniProt Q9NS00)
inactive: IRAK-1-4 Inhibitor I 0.04 | ibrutinib 0.042 | [1] -0.025 | ralimetinib -0.007 | [2] 0.07 | [3] 0.014 | [4] 0.029 | pinometostat 0.036 | [5] 0.159 | [6] 0.047 | [7] -0.016 | [8] 0.015 | [9] -0.014 | [10] -0.062 | Nexturastat A -0.058 | vemurafenib -0.014 | [11] -0.031 | [12] -0.095 | givinostat -0.006 | barasertib 0.054

C11orf98 (UniProt E9PRG8)
inactive: IRAK-1-4 Inhibitor I -0.147 | ibrutinib 0.067 | [1] 0.046 | ralimetinib 0.146 | [2] 0.07 | [3] 0.02 | [4] 0.113 | pinometostat 0.182 | [5] 0.019 | [6] -0.271 | [7] -0.036 | [8] 0.018 | [9] -0.103 | [10] -0.104 | Nexturastat A 0.236 | vemurafenib -0.095 | [11] -0.121 | [12] 0.078 | givinostat 0.03 | barasertib -0.062

C6orf89 isoform 2 (UniProt Q6UWU4)
inactive: IRAK-1-4 Inhibitor I 0 | ibrutinib 0.004 | [1] -0.002 | ralimetinib -0.023 | [2] -0.023 | [3] -0.069 | [4] 0.045 | pinometostat -0.033 | [5] 0.033 | [6] -0.008 | [7] -0.028 | [8] -0.005 | [9] 0.013 | [10] 0.035 | Nexturastat A -0.073 | vemurafenib 0.025 | [11] 0.008 | [12] -0.051 | givinostat -0.084 | barasertib -0.029

CAPZB (UniProt P47756)
inactive: IRAK-1-4 Inhibitor I 0.038 | ibrutinib 0.002 | [1] 0.005 | ralimetinib -0.03 | [2] -0.015 | [3] 0.037 | [4] 0.01 | pinometostat -0.009 | [5] 0.009 | [6] 0.021 | [7] 0.033 | [8] 0.037 | [9] 0.009 | [10] 0.013 | Nexturastat A -0.081 | vemurafenib -0.014 | [11] -0.01 | [12] -0.001 | givinostat -0.025 | barasertib 0.005

Later entries.

C5orf51 (UniProt A6NDU8)
inactive: IRAK-1-4 Inhibitor I 0.063 | ibrutinib -0.026 | [1] 0.077 | ralimetinib 0.057 | [2] -0.079 | [3] -0.073 | [4] 0.028 | pinometostat 0.085 | [5] 0.124 | [6] -0.006 | [7] -0.047 | [8] -0.101 | [9] 0.007 | [10] -0.033 | Nexturastat A -0.042 | vemurafenib -0.031 | [11] -0.075 | [12] 0.032 | givinostat 0.017 | barasertib 0.102

CAP1 (UniProt Q01518)
inactive: IRAK-1-4 Inhibitor I 0.021 | ibrutinib 0.004 | [1] 0.044 | ralimetinib -0.031 | [2] -0.048 | [3] 0.005 | [4] -0.009 | pinometostat -0.03 | [5] 0 | [6] 0.067 | [7] 0.029 | [8] 0.005 | [9] 0.038 | [10] -0.004 | Nexturastat A -0.03 | vemurafenib -0.017 | [11] 0.005 | [12] -0.049 | givinostat -0.033 | barasertib -0.008

C15orf40 (UniProt Q8WUR7)
inactive: IRAK-1-4 Inhibitor I 0.133 | ibrutinib 0.017 | [1] -0.021 | ralimetinib -0.071 | [2] 0.048 | [3] 0.068 | [4] 0.046 | pinometostat 0.042 | [5] 0.021 | [6] -0.062 | [7] -0.067 | [8] 0 | [9] -0.048 | [10] -0.034 | Nexturastat A 0.011 | vemurafenib -0.042 | [11] -0.064 | [12] -0.041 | givinostat -0.003 | barasertib 0.003

C18orf25 (UniProt Q96B23)
inactive: IRAK-1-4 Inhibitor I 0.03 | ibrutinib -0.002 | [1] 0.151 | ralimetinib -0.029 | [2] -0.033 | [3] 0.048 | [4] 0.048 | pinometostat -0.03 | [5] 0.057 | [6] -0.141 | [7] -0.036 | [8] 0.046 | [9] -0.008 | [10] -0.003 | Nexturastat A 0.007 | vemurafenib -0.016 | [11] -0.042 | [12] -0.021 | givinostat -0.01 | barasertib 0.001

C8orf82 (UniProt Q6P1X6)
inactive: IRAK-1-4 Inhibitor I 0.045 | ibrutinib 0.074 | [1] 0.026 | ralimetinib -0.046 | [2] -0.008 | [3] 0 | [4] -0.046 | pinometostat -0.032 | [5] 0.177 | [6] -0.083 | [7] 0 | [8] 0.024 | [9] -0.009 | [10] 0.012 | Nexturastat A -0.021 | vemurafenib 0.002 | [11] -0.026 | [12] -0.083 | givinostat -0.099 | barasertib 0.006

C3orf33 (UniProt Q6P1S2)
inactive: IRAK-1-4 Inhibitor I 0.039 | ibrutinib 0.034 | [1] 0.04 | ralimetinib 0.012 | [2] 0.023 | [3] -0.22 | [4] 0.022 | pinometostat 0.044 | [5] -0.092 | [6] 0.035 | [7] 0.045 | [8] -0.045 | [9] -0.036 | [10] 0.089 | Nexturastat A 0.081 | vemurafenib -0.038 | [11] 0.038 | [12] -0.114 | givinostat 0.122 | barasertib -0.074

CANT1 (UniProt Q8WVQ1)
inactive: IRAK-1-4 Inhibitor I 0.036 | ibrutinib 0.03 | [1] -0.019 | ralimetinib -0.062 | [2] 0.006 | [3] 0.004 | [4] -0.007 | pinometostat -0.036 | [5] 0.014 | [6] -0.055 | [7] -0.009 | [8] 0.021 | [9] 0.012 | [10] 0.014 | Nexturastat A -0.142 | vemurafenib -0.002 | [11] -0.005 | [12] -0.054 | givinostat -0.037 | barasertib 0.033

C1QBP (UniProt Q07021)
inactive: IRAK-1-4 Inhibitor I 0.035 | ibrutinib -0.004 | [1] -0.04 | ralimetinib 0.054 | [2] 0.002 | [3] 0.05 | [4] 0.007 | pinometostat -0.033 | [5] 0.017 | [6] -0.04 | [7] 0.005 | [8] -0.017 | [9] -0.039 | [10] 0.015 | Nexturastat A -0.04 | vemurafenib 0.037 | [11] -0.006 | [12] 0.096 | givinostat -0.031 | barasertib 0.008

CAB39 (UniProt Q9Y376)
inactive: IRAK-1-4 Inhibitor I 0.044 | ibrutinib 0.014 | [1] 0.005 | ralimetinib -0.044 | [2] -0.02 | [3] 0.051 | [4] -0.013 | pinometostat -0.053 | [5] -0.002 | [6] 0.018 | [7] -0.027 | [8] 0.007 | [9] 0.039 | [10] 0.028 | Nexturastat A -0.153 | vemurafenib -0.001 | [11] 0.009 | [12] -0.041 | givinostat 0.027 | barasertib 0.007
